Paper PMC6823245, “Positive Modulation of Angiotensin II Type 1 Receptor–Mediated Signaling by LVV–Hemorphin-7” (Frontiers in Pharmacology, 2019)
Results are given in words; binding and its absence hold for the method and conditions named. In cells and extracts the contact can be indirect. Some entries that bind do so weakly or less than the wild type.

Assays:
[1] = target: AT1R-RlucII (angiotensin II type 1 receptor fused to Renilla luciferase) (human) (UniProt P30556); experiment: FRET or BRET; as a1, but cells pretreated with 10 µM irbesartan (AT1R antagonist) for 15 min at 37°C before 10 nM AngII, 10 µM LVV–hemorphin-7 or both for 30 min
[2] = target: AT1R-RlucII (angiotensin II type 1 receptor fused to Renilla luciferase) (human) (UniProt P30556); experiment: FRET or BRET; live HEK293 cells coexpressing Rluc-fused receptor (donor) and Venus-Gαq or yPET–β-arrestin 2 (acceptor); dose–response (30 min, 37°C, PBS) and real-time kinetics; cells treated with AngII (thrombin for PAR1), LVV–hemorphin-7 or both; coelenterazine h 5 µM; ligand-induced BRET (540/480 nm ratio minus vehicle)

Substance: yPET–β-arrestin 2 (from UniProt P32121 1-409)
- binding [1]: no binding (condition: with 10 µM irbesartan)
- binding [2]: binds
